One purity is given for all peptides; the source may state it once. Strings that start with PEPTIDE1 are HELM notation: dots part the residues, brackets hold end groups and non-standard residues. Bridges are numbered along the chain shown (N, C = ends). [ ]: non-standard residue; d: D form. The star is where a group is joined. X1 = CN(C)c1ccc2c(c1)Oc1cc(N(C)C)ccc1C21OC(=O)c2ccc(C(=O)*)cc21; d(hCys) = N[C@H](CCS)C(=O)O Bounds are passed on as bounds.

This data set can be described thus: general procedure: Fmoc solid-phase peptide synthesis; Wang resin or 2-chlorotrityl chloride resin; oxyma/DIC. As to conditions: whole synthesis, scale of the general procedure 15 µmol.
Consider Tam-YFP(c(CH2)QFCFS), for which the “final HPLC purity” value is on record as over 95%.
As for GFLGYFP(xQFAFC) (cyclic; GFLG linker), the figure is over 95%.
As for “H-YFP[dC]QFAFC-OH (disulfide 4-9; SMILES C[C@@H]1NC(=O)[C@H](Cc2ccccc2)NC(=O)[C@H](CCC(N)=O)NC(=O)[C@H](NC(=O)[C@@H]2CCCN2C(=O)[C@H](Cc2ccccc2)NC(=O)[C@@H](N)Cc2ccc(O)cc2)CSSC[C@@H](C(=O)O)NC(=O)[C@H](Cc2ccccc2)NC1=O)”, the figure is over 95%; as for “PEPTIDE1{[XTam].Y.F.P.G.Q.F.A.F.S}$$$$V2.0”, over 95%; as for X1-YFP[dC]QFAFC-OH (disulfide 4-9), over 95%.
Consider YFP(c(CH2)QFAFC), for which the “final HPLC purity” value is listed as over 95%.
As to H-YFP[d(hCys)]QFAFC-OH (disulfide 4-9), the “final HPLC purity” value is over 95%.
Take Tam-EG(4)-YFP(xQFAFC): the “final HPLC purity” value is given as over 95%.
As for Mtx-GFLGK(Ac)YFP(xQFAFC), the figure is over 95%.
In the case of “PEPTIDE1{Y.F.P.[dC].Q.F.[XKTam].F.C}$PEPTIDE1,PEPTIDE1,4:R3-9:R3$$$V2.0” it was over 95%; in that of “PEPTIDE1{[dY].F.P.[dC].Q.F.[XKTam].F.C}$PEPTIDE1,PEPTIDE1,4:R3-9:R3$$$V2.0”, over 95%; in that of Tam-YFP(c(CH2)QFAFC), over 95%.
Regarding X1-YFP[dC]QFCFS-OH (disulfide 4-7), the “final HPLC purity” value is over 95%.
On to PEPTIDE1{Y.F.P.G.Q.F.A.F.S}$$$$V2.0, for which the “final HPLC purity” value is given as over 95%.
In the case of “Tam-EG(4)-YFPGQFAAS (Tam-EG(4) N-terminal label)”, the “final HPLC purity” value is over 95%.
Consider Tam-YFP(c(CH2)QFAFX), for which the “final HPLC purity” value is reported as over 95%.
